Experimental data as given in patent US20250389728A1, “NOVEL CLASS OF TRIOXANE-BASED MS-CLEAVABLE CROSS-LINKERS TO ADVANCE PROTEIN-PROTEIN INTERACTION STUDIES USING CROSS-LINKING MASS SPECTROMETRY” (The Regents of the University of California, priority 2024, published 2025).

How the values were obtained:
mouse heart tissue = test: In vivo TSTO cross-linking of mouse heart tissue, LC-MSn; conditions: 1 mM TSTO in PBS, 1 h RT
HEK293 cells = test: In vivo TSTO cross-linking of human cells, LC-MSn (XL-MS); type: cell-based

In the case of `O=C(CCCC1OC(CCCC(=O)ON2C(=O)CCC2=O)OC(CCCC(=O)ON2C(=O)CCC2=O)O1)ON1C(=O)CCC1=O` (centres unmarked) [TSTO, Tris(2,5-dioxopyrrolidin-1-yl) 4,4′,4″-(1,3,5-trioxane-2,4,6-triyl)tributanoate], the “total CSMs” value (mouse heart tissue) is reported as 4,770, the unique bivalent cross-links (mouse heart tissue) is reported as 921 and the unique trivalent cross-links (mouse heart tissue) is reported as 170. For the same compound, the “share of unique CSMs that were tri-links” value (HEK293 cells; 1 mM, intact cells) was 32.3%, the “total unique CSMs” value (HEK293 cells; 1 mM, intact cells, two biological replicates) was 9079 and the “mapped K-K linkages considered satisfactory (≤35 Å)” value (HEK293 cells; 1790 K-K linkages across 539 CORUM complexes) was 95%. The “XL-proteome, number of proteins” value (HEK293 cells; in-cell cross-linking) was 1512 proteins and the “number of PPIs in XL-proteome” value (HEK293 cells; in-cell cross-linking) was 1242 PPIs.
